Measured values taken from PMC9636422.
No constants are given. Whether binding was seen depends on the method and setting. In cells and extracts the contact can be indirect. Some binding calls cover weakened binding; strength is not graded here.

Sequences of proteins named here, by UniProt entry; tags and fusion partners are left off. A change or cut given only in a name is not applied to a line headed by its entry. A line that says so, or that is headed by a name, gives the form on record, which may keep a tag or linker.
UniProt O14977: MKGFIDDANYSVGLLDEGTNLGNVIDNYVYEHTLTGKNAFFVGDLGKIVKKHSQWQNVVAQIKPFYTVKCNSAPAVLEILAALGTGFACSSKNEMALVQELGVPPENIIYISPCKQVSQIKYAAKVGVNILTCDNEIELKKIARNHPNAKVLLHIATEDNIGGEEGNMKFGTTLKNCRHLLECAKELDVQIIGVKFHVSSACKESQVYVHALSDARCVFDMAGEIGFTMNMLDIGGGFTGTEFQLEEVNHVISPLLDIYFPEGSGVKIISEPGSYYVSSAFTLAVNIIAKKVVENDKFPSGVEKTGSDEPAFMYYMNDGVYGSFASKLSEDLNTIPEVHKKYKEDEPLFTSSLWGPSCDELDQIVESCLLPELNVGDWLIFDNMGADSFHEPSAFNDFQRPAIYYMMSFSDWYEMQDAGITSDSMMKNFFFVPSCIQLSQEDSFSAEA
FLAG-tagged edited AZIN1 (Ser367Gly) (O14977, form named): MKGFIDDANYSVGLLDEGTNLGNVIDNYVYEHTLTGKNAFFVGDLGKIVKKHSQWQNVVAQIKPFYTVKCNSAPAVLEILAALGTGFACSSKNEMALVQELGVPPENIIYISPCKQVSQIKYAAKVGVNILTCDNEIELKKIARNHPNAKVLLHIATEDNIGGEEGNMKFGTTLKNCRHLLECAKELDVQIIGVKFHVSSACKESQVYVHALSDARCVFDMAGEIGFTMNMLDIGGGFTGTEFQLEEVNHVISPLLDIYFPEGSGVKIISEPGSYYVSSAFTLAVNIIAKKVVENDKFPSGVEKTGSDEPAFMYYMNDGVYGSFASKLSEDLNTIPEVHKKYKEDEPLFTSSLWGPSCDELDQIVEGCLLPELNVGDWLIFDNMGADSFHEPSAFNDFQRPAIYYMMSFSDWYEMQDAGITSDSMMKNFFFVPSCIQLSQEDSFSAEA
UniProt P35579: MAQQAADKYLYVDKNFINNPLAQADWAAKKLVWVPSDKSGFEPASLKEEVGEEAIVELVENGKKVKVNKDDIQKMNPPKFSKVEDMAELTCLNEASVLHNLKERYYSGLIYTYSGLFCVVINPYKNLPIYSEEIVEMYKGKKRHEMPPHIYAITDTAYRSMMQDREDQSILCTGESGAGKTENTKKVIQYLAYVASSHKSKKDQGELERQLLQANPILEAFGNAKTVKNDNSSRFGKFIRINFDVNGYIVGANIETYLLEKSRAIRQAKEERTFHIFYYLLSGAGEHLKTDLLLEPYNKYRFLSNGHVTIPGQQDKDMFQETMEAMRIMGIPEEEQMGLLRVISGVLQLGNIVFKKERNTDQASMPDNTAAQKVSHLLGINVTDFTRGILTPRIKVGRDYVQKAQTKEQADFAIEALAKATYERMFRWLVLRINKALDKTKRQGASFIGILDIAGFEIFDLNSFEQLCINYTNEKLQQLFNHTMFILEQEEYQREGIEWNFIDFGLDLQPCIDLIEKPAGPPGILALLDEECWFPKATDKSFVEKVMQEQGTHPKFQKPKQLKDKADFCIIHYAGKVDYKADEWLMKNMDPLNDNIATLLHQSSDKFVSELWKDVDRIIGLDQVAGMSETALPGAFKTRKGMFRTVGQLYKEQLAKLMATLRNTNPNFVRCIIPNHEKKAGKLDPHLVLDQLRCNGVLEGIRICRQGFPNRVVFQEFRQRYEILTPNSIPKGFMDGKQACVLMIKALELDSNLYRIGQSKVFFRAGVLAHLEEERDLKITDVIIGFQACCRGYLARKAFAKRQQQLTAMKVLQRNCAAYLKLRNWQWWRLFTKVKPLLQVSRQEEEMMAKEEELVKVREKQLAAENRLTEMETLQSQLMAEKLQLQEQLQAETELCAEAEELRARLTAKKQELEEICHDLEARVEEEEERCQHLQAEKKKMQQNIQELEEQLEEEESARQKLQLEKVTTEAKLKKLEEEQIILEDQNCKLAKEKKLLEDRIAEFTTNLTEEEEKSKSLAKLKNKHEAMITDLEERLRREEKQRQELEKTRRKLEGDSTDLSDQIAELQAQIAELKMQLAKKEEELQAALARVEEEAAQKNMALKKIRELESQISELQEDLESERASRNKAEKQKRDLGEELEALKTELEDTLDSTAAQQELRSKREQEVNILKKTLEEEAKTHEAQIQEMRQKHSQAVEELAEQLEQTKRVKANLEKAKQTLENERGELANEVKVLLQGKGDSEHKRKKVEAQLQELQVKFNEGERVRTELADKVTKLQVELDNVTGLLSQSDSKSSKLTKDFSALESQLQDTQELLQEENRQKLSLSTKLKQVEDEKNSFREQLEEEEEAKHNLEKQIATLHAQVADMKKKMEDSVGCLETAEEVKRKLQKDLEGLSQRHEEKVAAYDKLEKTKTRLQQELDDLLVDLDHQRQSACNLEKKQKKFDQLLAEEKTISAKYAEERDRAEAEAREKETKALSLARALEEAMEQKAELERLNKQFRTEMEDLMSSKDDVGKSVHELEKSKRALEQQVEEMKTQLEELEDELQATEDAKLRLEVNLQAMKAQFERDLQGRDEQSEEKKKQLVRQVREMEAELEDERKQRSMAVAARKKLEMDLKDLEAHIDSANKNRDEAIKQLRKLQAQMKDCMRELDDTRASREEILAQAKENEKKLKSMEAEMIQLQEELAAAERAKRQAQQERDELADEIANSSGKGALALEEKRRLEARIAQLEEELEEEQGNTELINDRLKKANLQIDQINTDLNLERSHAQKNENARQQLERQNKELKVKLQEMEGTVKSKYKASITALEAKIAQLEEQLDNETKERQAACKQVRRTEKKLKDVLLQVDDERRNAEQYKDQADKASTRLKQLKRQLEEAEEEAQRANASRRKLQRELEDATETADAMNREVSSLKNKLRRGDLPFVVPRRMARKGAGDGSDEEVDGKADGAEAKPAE

Experiments:
[1] = molecular target: FLAG-tagged wild-type AZIN1 (Antizyme Inhibitor 1) (human) (UniProt O14977); experiment: co-IP; HEK293 cells transfected with FLAG-wtAZIN1 or FLAG-edAZIN1 (24 h); immunoprecipitated with anti-FLAG antibody or IgG, protein G-agarose, western blot for myosin-9, ACTG1, ACTA2 (ACTG1 and ACTA2 in the nuclear fractions)
[2] = molecular target: FLAG-tagged edited AZIN1 (Ser367Gly) (human) (UniProt O14977); experiment: as above

myosin-9 (from UniProt P35579 1-1960) was tested, and the binding [1] was “no binding” and the binding [2] was “binds”.
